Among all 340,000 compounds or so, about 170 (0.05%) were called active. Inconclusive means that the source gave no clear call. Such entries were picked first, then a sample of the others. Calls come from the whole dose curve; as a rule, active = well fitted inhibition curve with a large enough effect in the signal ratio, with a control signal flat (not every such curve was filed as active); inconclusive = small, poorly fitted or top-dose-only effect, or effect the other way, or a change in a side signal; inactive = flat fitted curve, though single readings scatter; the % refers to the signal ratio. Potencies beside an inconclusive call are fits to weak or partial responses and may not hold up.
Experiment: qHTS Assay to Find Inhibitors of Chronic Active B-Cell Receptor Signaling;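 for activity change, negative = inhibition: plate controls were basal doxycycline-induced cells for no effect and cells given 10 µM MG132 for full effect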
Settings: ABC-DLBCL IkBa-CBG/CBR reporter, luminescence ratio (green luciferase fused to IkBa over red control in TMD8 lymphoma cells), 4 h; activity change, negative = inhibition: at 46.1 µM (top of the series)
Procedure, shortened: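 TMD8 ABC-DLBCL cells carrying doxycycline-inducible green luciferase fused to IkappaBalpha plus unfused red luciferase were exposed to compounds (up to 46 uM) for 4 hrs at 37C. Activity came from the overlap-corrected green/red luminescence ratio.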
Potency is the fitted concentration of half-maximal effect.

Row | SMILES | activity change, negative = inhibition | Potency
1 | CCCCC(=O)Nc1cc(NC(=O)CC)ccc1Cl | inconclusive: 1.85% | 
2 | Cc1ccccc1NC(=O)C1CCCN(C(=O)Nc2ccc(F)cc2)C1 (configuration not stated) | inconclusive: 2.57% | 
3 | C/C(=N/NC(=O)c1cnccn1)c1ccncc1 |  | inconclusive: 22.4 µM [falling, single point]
4 | N#C/C(=C\c1ccc(N2CCOCC2)c([N+](=O)[O-])c1)c1nc2ccccc2[nH]1 | inactive | 
5 | CCOC(=O)C(NC(=O)c1cccc(Cl)c1)(Nc1nnc(C)s1)C(F)(F)F (configuration not stated) | inactive | 
6 | CC(=O)NS(=O)(=O)c1ccc(NS(=O)(=O)c2ccccc2[N+](=O)[O-])cc1 | inconclusive: 4.74% | 
7 | COc1cccc(-c2noc(C3CCCN(C(=O)c4ccc(F)cc4F)C3)n2)c1 (configuration not stated) | inactive | 
8 | Cc1ccc(NC(=O)C(=O)NCC2CCCN2S(=O)(=O)c2cccs2)cc1C (configuration not stated) |  | inconclusive: 16.4 µM [falling, partial curve, poor fit]
9 | CCC(C)NC(=S)Nc1ccc(F)cc1 (configuration not stated) | inconclusive: 1.27% | 
10 | O=C(NCCc1ccccc1)C1CCN(Cc2cccc3ccccc23)CC1 | inactive | 
11 | C/C(=N\Nc1nc(-c2ccccn2)nc2ccccc12)c1ccc(F)cc1 | inconclusive: 0.0769% | 
12 | CC(=O)NC(Cc1ccccc1F)C(=O)NC1CCN(C(=O)Nc2ccc(C)cc2)CC1 (configuration not stated) | inconclusive: 2.92% | 
13 | COc1ccc(CC(=O)NCC2CCCN(Cc3ccc(F)c(OC)c3)C2)cc1 (configuration not stated) | inconclusive: 1.75% | 
14 | COc1cccc(CN2CCNC(=O)C2CC(=O)N(C)C2CCOCC2)c1OC (configuration not stated) | inconclusive: -0.753% | 
15 | CCN(CC)S(=O)(=O)c1ccc(C)c(NC(=O)COC(=O)CCC(=O)c2cccs2)c1 | inconclusive: 1.12% | 
16 | Cc1nn(C(C)C(=O)N2CCc3ccccc3C2)c(=O)c2cc3occc3n12 (configuration not stated) | inconclusive: 0.0394% | 
17 | Cc1cccc(CSc2nc3nc(C)cc(C)n3n2)c1 | inconclusive: 6.78% | 
18 | COc1ccc(N2C(=O)CS(=O)C(c3ccccc3)C2=O)cc1 (configuration not stated) |  | inconclusive: 35.5 µM [cytotoxic, single point]
19 | CCOC(=O)c1c(C)oc(NC(=O)CCl)c1C(=O)OCC | inconclusive: -7.3% | 
20 | CCOC(=O)CC1ON(C)C(=O)N1c1ccc([N+](=O)[O-])cc1 (configuration not stated) |  | inconclusive: 0.58 µM [rising, full curve, poor fit]
21 | COc1ccc(S(=O)(=O)Nc2nc3ccccc3nc2Nc2ccc3c(c2)OCO3)cc1 |  | inconclusive: 0.731 µM [falling, full curve, poor fit]

Row | SMILES | activity change, negative = inhibition | Potency
22 | N#Cc1nc(-c2ccccc2F)oc1N1CCN(C(=O)c2ccco2)CC1 | inconclusive: 3.35% | 
23 | O=C(O)c1ccc(N/N=C/c2ccc(C(F)(F)F)cc2)cc1 | inconclusive: 312% | 
24 | Cc1nc2ccc3[nH]snc3c2n1 | inconclusive: 11.7% | 
25 | CC(C)NS(=O)(=O)c1ccc(NC(=S)NC(=O)c2cccc([N+](=O)[O-])c2)cc1 | inconclusive: -8.32% | 
26 | Cc1ccc(O)c(CNc2nc3ccccc3n2C)c1 | inconclusive: 7.14% | 
27 | Cc1cccc(Oc2cc(NC(=O)Cn3cnc([N+](=O)[O-])n3)cc([N+](=O)[O-])c2)c1 | inconclusive: 6.11% | 
28 | Cn1nccc1C(=O)Oc1ccc(/C=N/NC(=O)c2ccccc2O)cc1 | inconclusive: 351% | 
29 | C=CCNC(=S)N/N=C(\C)c1cccc(NC(C)=O)c1 |  | inconclusive: 35.5 µM [cytotoxic, single point]
30 | Cc1ccc(NC(=O)c2cc(NC(=O)c3ccco3)ccc2N2CCOCC2)cc1 |  | inconclusive: 4.11 µM [rising, full curve]
31 | Cc1cc(/C=C2/NC(=O)NC2=O)c(C)n1-c1sc2c(c1C#N)CCCC2 | inconclusive: 1.16% | 
32 | O=C(Nc1ccc(NC(=O)c2cccs2)cn1)c1ccco1 |  | inconclusive: 15.8 µM [falling, single point]
33 | CC(=O)c1ccc(OCC(C)Oc2ccc(C#N)cc2)cc1 (configuration not stated) | inactive | 
34 | C=CCSc1nnc(NC(=O)C2=COCCO2)s1 |  | inconclusive: 16.4 µM [falling, single point]
35 | C/C(=N/NC(=O)CNc1ccc(Cl)cc1C)c1ccc(C)cc1 | inconclusive: -15% | 
36 | COC(=O)C1=C(C)NC(C)=C(C(=O)OC)C1C(=O)OCCN1C(=O)c2ccccc2C1=O | inconclusive: -1.21% | 
37 | CNC(=O)c1c(Cl)cnn1-c1ccc(F)cc1 | inconclusive: 6.05% | 
38 | CN(C)S(=O)(=O)c1cccc(NC(=O)COc2ccccc2C(=O)NCc2ccccc2)c1 | inconclusive: -9.3% | 
39 | COc1ccc(C(=O)Nc2ccc(F)cc2F)cc1OC |  | inconclusive: 12.6 µM [falling, partial curve]
40 | O=C(CCC1CCCCC1)Nc1nnc(C(F)(F)F)s1 | inconclusive: 5.05% | 
41 | COc1ccccc1OCC(=O)N/N=C/C=C/c1ccc([N+](=O)[O-])o1 | inactive | 
42 | CCCN(C(=O)c1c(-c2ccccc2)noc1C)c1c(N)n(Cc2ccccc2)c(=O)[nH]c1=O | inconclusive: 1.02% | 

Entries of single compounds as entered above.
COc1ccc(N2C(=O)CS(=O)C(c3ccccc3)C2=O)cc1 (configuration not stated) reads Potency: inconclusive: 35.5 µM [cytotoxic, single point]
Cc1nn(C(C)C(=O)N2CCc3ccccc3C2)c(=O)c2cc3occc3n12 (configuration not stated) reads activity change, negative = inhibition: inconclusive: 0.0394%

Further compounds:

Row | SMILES | activity change, negative = inhibition | Potency
43 | CCOC(=O)c1ccc(NC(=O)c2c(NCc3ccc(OC)c(OC)c3OC)sc3c2CCC(C)C3)cc1 (configuration not stated) |  | inconclusive: 35.5 µM [falling, single point]
44 | C/C(=N\NC(=S)NC1CCCCC1)c1c(F)cccc1F | inconclusive: -5.41% | 
45 | O=C(NCC(c1ccco1)S(=O)(=O)c1cccs1)c1c(F)cccc1F (configuration not stated) | inactive | 
46 | COc1ccccc1N1CCN(C(=O)c2cccc(N3C(=O)NC4CC3(C)Oc3c(OC)cccc34)c2)CC1 (configuration not stated) | inconclusive: 9.25% | 
47 | CCN(CC)C(=O)c1sc2c(c1C)c(=O)n(Cc1ccccc1)c(=O)n2Cc1c(C)cc(C)cc1C | inconclusive: -1.52% | 
48 | COC(=O)c1cc(=O)nc2scc(C)n12 | inactive | 
49 | CC(C)(C)OC(=O)N[C@H]1C=C[C@@H](OC(=O)CC(=O)OCC(F)(F)F)C1 | inactive | 
50 | CC(C)c1nc(SCC(=O)Nc2ccc(N(C)C)cc2)c2ccccc2n1 | inactive | 
51 | Cc1nc(N)sc1-c1csc(Nc2ccccc2)n1 |  | inconclusive: 7.31 µM [falling, partial curve, poor fit]
52 | Cc1ccc(S(=O)(=O)CCc2nnc(N)s2)cc1C | inactive | 
53 | Cc1cccc(/C=C2\Sc3ccc(C(=O)N4CCCCC4)cc3N(C)C2=O)c1 | inconclusive: 4.18% | 
54 | Fc1cccc(NC(=S)N2CCn3cccc3C2c2cccnc2)c1 (configuration not stated) |  | inconclusive: 10 µM [rising, partial curve, poor fit]
55 | CC(=O)Nc1ccc(-c2csc(Nc3cccc(C)n3)n2)cc1 |  | inconclusive: 7.08 µM [falling, partial curve, poor fit]
56 | COc1ccc(/C(C)=N/Nc2cc(C(F)(F)F)ccc2Cl)c(OC)c1 | inconclusive: 16.7% | 
57 | COc1ccc(NC(=O)CCC(=O)OCC(=O)c2ccc(Oc3ccc([N+](=O)[O-])cc3)cc2)cc1 | inactive | 
58 | O=C1CCC(=O)N1CC(O)COc1ccccc1 (configuration not stated) | inconclusive: 6.01% | 
59 | O=C(Nc1ccc2c(c1)OCO2)Nc1ccc(F)cc1F |  | inconclusive: 15.8 µM [falling, partial curve]
60 | COc1ccc(-n2cc(CNCCCN3CCCC3=O)c(-c3ccccc3Cl)n2)cc1 | inconclusive: 10% | 
61 | C=CCOc1nc(-c2ccncc2)nc2ccccc12 | inconclusive: -0.18% | 
62 | COc1ccc(-c2nc3ccccc3c(=O)n2O)cc1 | inactive | 
63 | CCC(Oc1ccccc1)C(=O)Nc1ccc(-c2nnc(-c3ccco3)o2)cc1 (configuration not stated) | inconclusive: 15.4% | 

Row | SMILES | activity change, negative = inhibition | Potency
64 | COc1ccc(C(=O)NC(=S)N2CCC(C)CC2)cc1 | inactive | 
65 | CCOCc1cn(CC(=O)c2ccc(Cl)cc2)c(C)nc1=N | inconclusive: 5.38% | 
66 | COc1cccc(/C=N/NC(=O)c2ccc([N+](=O)[O-])cc2Cl)c1O |  | inconclusive: 1.84 µM [falling, full curve]
67 | Clc1ccc(OCCCn2cncn2)cc1Cl | inconclusive: 11.9% | 
68 | Cc1cccc(CCNC(=O)CCNS(=O)(=O)c2cc(Br)cnc2N)c1 | inconclusive: -12.6% | 
69 | Cc1cnc(NC(=O)c2ccc(OCC3CCCO3)cc2)s1 (configuration not stated) | inconclusive: 16.5% | 
70 | CN(C)c1nc(NC(C)(C)C)nc(SCC(=O)Nc2ccccc2)n1 | inconclusive: 4.09% | 
71 | NC(=Nc1ccc(N)cc1)C(N)=Nc1ccc(N)cc1 | inconclusive: 0.405% | 
72 | CCOc1ccc(NC(=O)CC2C(=O)N(c3ccccc3)C(=O)N2Cc2ccccn2)cc1 (configuration not stated) |  | inconclusive: 20.6 µM [falling, partial curve, poor fit]
73 | O=C(COc1ccccc1)NNC1=NS(=O)(=O)c2ccccc21 | inconclusive: -13.3% | 
74 | O=C(CN1C(=O)c2ccccc2S1(=O)=O)NC1CC2CCC1C2 (configuration not stated) | inconclusive: 4.53% | 
75 | Cn1ncc(Br)c1C(=O)OCC(=O)Nc1nc(-c2ccccc2)cs1 |  | inconclusive: 29.1 µM [falling, single point]
76 | COc1ccc(NC(=O)Cc2coc3cc(C)c(C(C)C)cc23)cc1S(=O)(=O)N1CCOCC1 | inactive | 
77 | COc1ccc(/C=N/NC(=O)c2ccn[nH]2)cc1COc1ccc([N+](=O)[O-])c(C)c1 |  | inconclusive: 11.2 µM [falling, single point]
78 | COCC(C)NC(=O)NC(=O)c1ccc(Cl)cc1 (configuration not stated) | inconclusive: 7.47% | 
79 | Cc1ccc(-n2nnnc2CN2CCCCC2)cc1 |  | inconclusive: 35.5 µM [rising, partial curve, poor fit]
80 | COc1cccc(NC(=S)NCCc2ccccn2)c1 | inactive | 
81 | O=C(NCCc1ccc(Cl)cc1)c1ccc(=O)[nH]c1 | inactive | 
82 | CCN(c1ccccc1)S(=O)(=O)c1cc(C(=O)NCC(c2ccco2)N2CCCCC2)ccc1C (configuration not stated) | inconclusive: -10% | 

A second format for part of the listing above.
Row	SMILES	activity change, negative = inhibition	Potency
1	CCCCC(=O)Nc1cc(NC(=O)CC)ccc1Cl	inconclusive: 1.85%	
5	CCOC(=O)C(NC(=O)c1cccc(Cl)c1)(Nc1nnc(C)s1)C(F)(F)F (configuration not stated)	inactive	
10	O=C(NCCc1ccccc1)C1CCN(Cc2cccc3ccccc23)CC1	inactive	
11	C/C(=N\Nc1nc(-c2ccccn2)nc2ccccc12)c1ccc(F)cc1	inconclusive: 0.0769%	
15	CCN(CC)S(=O)(=O)c1ccc(C)c(NC(=O)COC(=O)CCC(=O)c2cccs2)c1	inconclusive: 1.12%	
19	CCOC(=O)c1c(C)oc(NC(=O)CCl)c1C(=O)OCC	inconclusive: -7.3%	
23	O=C(O)c1ccc(N/N=C/c2ccc(C(F)(F)F)cc2)cc1	inconclusive: 312%	
26	Cc1ccc(O)c(CNc2nc3ccccc3n2C)c1	inconclusive: 7.14%	
28	Cn1nccc1C(=O)Oc1ccc(/C=N/NC(=O)c2ccccc2O)cc1	inconclusive: 351%	
31	Cc1cc(/C=C2/NC(=O)NC2=O)c(C)n1-c1sc2c(c1C#N)CCCC2	inconclusive: 1.16%	
33	CC(=O)c1ccc(OCC(C)Oc2ccc(C#N)cc2)cc1 (configuration not stated)	inactive	
36	COC(=O)C1=C(C)NC(C)=C(C(=O)OC)C1C(=O)OCCN1C(=O)c2ccccc2C1=O	inconclusive: -1.21%	
40	O=C(CCC1CCCCC1)Nc1nnc(C(F)(F)F)s1	inconclusive: 5.05%	
50	CC(C)c1nc(SCC(=O)Nc2ccc(N(C)C)cc2)c2ccccc2n1	inactive	
52	Cc1ccc(S(=O)(=O)CCc2nnc(N)s2)cc1C	inactive	
56	COc1ccc(/C(C)=N/Nc2cc(C(F)(F)F)ccc2Cl)c(OC)c1	inconclusive: 16.7%	
58	O=C1CCC(=O)N1CC(O)COc1ccccc1 (configuration not stated)	inconclusive: 6.01%	
59	O=C(Nc1ccc2c(c1)OCO2)Nc1ccc(F)cc1F		inconclusive: 15.8 µM [falling, partial curve]
60	COc1ccc(-n2cc(CNCCCN3CCCC3=O)c(-c3ccccc3Cl)n2)cc1	inconclusive: 10%	
68	Cc1cccc(CCNC(=O)CCNS(=O)(=O)c2cc(Br)cnc2N)c1	inconclusive: -12.6%	
69	Cc1cnc(NC(=O)c2ccc(OCC3CCCO3)cc2)s1 (configuration not stated)	inconclusive: 16.5%	
77	COc1ccc(/C=N/NC(=O)c2ccn[nH]2)cc1COc1ccc([N+](=O)[O-])c(C)c1		inconclusive: 11.2 µM [falling, single point]
80	COc1cccc(NC(=S)NCCc2ccccn2)c1	inactive	
82	CCN(c1ccccc1)S(=O)(=O)c1cc(C(=O)NCC(c2ccco2)N2CCCCC2)ccc1C (configuration not stated)	inconclusive: -10%	
